Measurements from patent US20210139589A1 (APEXIGEN, published 2021).
Changes are numbered by the printed parent chain. No constants are given. Whether binding was seen depends on the method and setting. Some binding calls cover weakened binding; strength is not graded here. For part of these data: Sequences can lack the tags named with a protein. Each block holds one binder with its values, some of them ahead of it.

Assays:
VISTA-his protein [1] = molecular target: T1, VISTA-his protein (UniProt Q9H7M9); experiment: competition ELISA on coated VISTA-his with biotin-labeled VSTB112
T1 sequence (looked up): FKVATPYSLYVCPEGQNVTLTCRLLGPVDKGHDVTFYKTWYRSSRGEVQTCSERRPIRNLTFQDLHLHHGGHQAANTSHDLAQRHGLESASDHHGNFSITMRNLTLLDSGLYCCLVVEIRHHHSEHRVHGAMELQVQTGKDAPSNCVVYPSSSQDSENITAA

[2] = molecular target: T2, VISTA (antigen of the hybridoma screening ELISA) (UniProt Q9H7M9); experiment: ELISA binding assay, hybridoma screen
T2 sequence (looked up): T1 sequence (looked up)

VISTA-his protein [3] = molecular target: T1, VISTA-his protein; experiment: competition ELISA on coated VISTA-his; pre-incubation with the chimeric antibody, then biotin-labeled VSTB112, detected with streptavidin-HRP
[4] = molecular target: T3, human VISTA expressed on the cell surface (HEK293 cells transfected with human VISTA cDNA; native on human immune cells) (human) (UniProt Q9H7M9); experiment: flow cytometry on HEK293 cells transfected with human VISTA
T3 sequence (looked up): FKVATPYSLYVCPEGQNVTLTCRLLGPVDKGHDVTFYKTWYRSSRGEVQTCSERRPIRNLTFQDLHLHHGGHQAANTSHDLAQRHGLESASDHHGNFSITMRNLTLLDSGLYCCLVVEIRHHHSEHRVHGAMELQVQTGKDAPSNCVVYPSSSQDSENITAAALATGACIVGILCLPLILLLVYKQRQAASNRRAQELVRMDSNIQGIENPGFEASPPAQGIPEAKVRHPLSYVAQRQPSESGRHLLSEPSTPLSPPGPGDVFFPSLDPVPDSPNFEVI

soluble VISTA [5] = molecular target: T4, soluble VISTA (UniProt Q9H7M9); experiment: ELISA on soluble VISTA
T4 sequence (looked up): T1 sequence (looked up)

soluble VISTA [6] = molecular target: T4, soluble VISTA; experiment: ELISA, binding to soluble VISTA

- binding (VISTA-his protein [3]): binds
B3: c14F1 (antibody, V domains shown)
VH: QSLEESGGDLVKPGASLKLTCTASGFSFSSSYYMCWVRQAPGKGLEWVACFYAGFSGSTYYASWAKGRFTISKTSSTTVTLQMTSLTAADTATYFCAKGASTYGYTGYDYAGDYFILWGPGTLVTVSS
VL: ALVMTQTPSSVSAAVGGTVTINCQASQNIYSNLAWYQQKPGQRPKLLIYAASNLASGVSSRFKGSGSGTEYTLTISDLECDDAATYYCQSAYYSSSADSYNAFGGGTEVVVK

- binding [2]: binds
B5: rabbit anti-VISTA antibody clone 5B6 (antibody, V domains shown)
VH: QELVESGGGLVQAGESLKLSCKASGIDFSSYGISWVRQAPGKGLEWIAYIYPGNDITDYAHSVKGRFTISSDNAQNTVFLQMTSLTASDTATYFCARDAGYAGYGYPTGTYYFTLWGPGTLVTVSS
VL: ALVMTQTPSSVSAAVGGTVTINCQASQNIYNNLAWYQQKPGQRPKLLTYGASNLESGVPSRFKGSGSGTEYTLTISDLECDDAATYYCQSAYYSSSPDGAAFGGGTEVVVK

- binding [2]: binds
B6: rabbit anti-VISTA antibody clone 6B5 (antibody, V domains shown)
VH: B5 VH with E45G, H61N, Y104D
VL: B5 VL with A14P, N28S, T48I, K63E

- binding [4]: binds
- binding (soluble VISTA [5]): binds
- binding (soluble VISTA [6]): binds
B7: humanized anti-VISTA antibody 14F1-HZD2 (antibody, human IgG1, kappa, V domains shown)
VH: EVQLLESGGGLVQPGGSLRLSCAASGFSFSSSYYMCWVRQAPGKGLEWVACFYAGFSGSTYYASWAKGRFTISRDNSKNTLYLQMNSLRAEDTAVYYCAKGASTYGYTGYDYAGDYFILWQPGTLVTVSS
VL: DIQMTQSPSSVSASVGDRVTITCQASQNIYSNLAWYQQKPGKAPKLLIYAASNLASGVPSRFSGSGSGTDFTLTISSLQPEDFATYYCQSAYYSSSADSYNAFGGGTKVEIKR
notes: kappa light chain

- binding (soluble VISTA [5]): binds
- binding (soluble VISTA [6]): binds
B8: humanized anti-VISTA antibody 41A11-HZD2 (antibody, human IgG1, kappa, V domains shown)
VH: B7 VH with A50G, S59G, S103N, I118T, Q121G, P122Q
VL: DIQMTQSPSTLSASVGDRVTITCQASQNIGSNLAWYQQKPGKAPKLLIYAASNLESGVPSRFSGSGSGTEFTLTISSLQPDDFATYYCQSAYYSSVDSYNTFGGGTKVEIKR
notes: kappa light chain

- binding (VISTA-his protein [3]): binds
- binding (VISTA-his protein [1]): binds
B9: 29G7 human IgG1 chimeric anti-VISTA antibody (antibody, V domains shown)
VH: QSLEESGGRLVTPGTPLTLTCTASGFSLSSYAMGWVRQAPGKGLEWIGIIIVSGNIYYASWAKGQFTISKTSTTVDLKITSPTTEDTATYFCARGDGYTYGLWGQGTLVTVSS
VL: DIVMTQTPASVEAAVGGTVTIKCQASQSVYSRYLAWFQQKPGQPPKLLIYSASTLASGVSSRFKGSGSGTEYTLTISGVQCDDAATYYCQGTFYIPDYIDGFGGGTEVVVK

- binding [4]: binds
- binding (soluble VISTA [5]): binds
- binding (soluble VISTA [6]): binds
B12: humanized anti-VISTA antibody 29G7-HZD2 (antibody, human IgG1, kappa, V domains shown)
VH: EVQLVESGGGLVQPGGSLRLSCAASGFSLSSYAMGWVRQAPGKGLEWVGIIIVSGNIYYASWAKGRFTISRDNSKNTLYLQMNSLRAEDTAVYYCARGDGYTYGLWGQGTLVTVSS
VL: DIQMTQSPSTLSASVGDRVTITCQASQSVYSRYLAWYQQKPGKAPKLLIYSASTLASGVPSRFSGSGSGTEFTLTISSLQPDDFATYYCQGTFYIPDYIDGFGGGTKVEIKR
notes: kappa light chain

Further lines, the binder ahead of its results:

B1: 2D12 human IgG1 chimeric anti-VISTA antibody (antibody, V domains shown)
VH: LSLEESGGRLVTPGTPLTLTCTVSGIDLSSYAMGWVRQAPGKGLEYIGIISSSGSAFYASWAKGRFTISKTSSTTVDLKMTSPTTEDTATYFCARHYAGYTTPYYFNFWGPGTLVTVSS
VL: AYDMTQTPASVEVTVGGTVTIKCQASENIYSNLAWYQQKPGQPPKVLIYAASDLASGVPSRFKGSGSGTEYTLTISGVECADAATYYCQQGFSSSNVDNAFGGGTEVVVK
- binding (VISTA-his protein [1]): binds

B2: rabbit anti-VISTA antibody clone 15H1 (VH) / 15L1 (VL) (antibody, V domains shown)
VH: QSLEESGGRLVTPGTPLTLTCTVSGIDLSDYAMGWVRQAPGKGLEYIAVISPIAYTYYAPWARGRFTISRASTTVDLKVTSPTTEDTATYFCARWAGTGWGYFNLWGPGTLVTVSS
VL: AFELTQTPSSVSEPVGGTVTIKCQASESVSNYLAWYQQKPGQPPKLLIYGASTLESGVPSRFSGSGSGTEFTLTISDLECADAATYYCQEYDPSIDSGSVFGGGTELVVK
- binding [2]: binds

B4: rabbit anti-VISTA antibody clone 4A2 (antibody, V domains shown)
VH: QELVESGGGLVQPGESLKLSCKASGFDFSSYGVSWVRQAPGKGLEWVGYIDPVLGSAAHASWVNGRFTISSHNAQNTLYLQLNSLTAADTATYFCARAGYAGYGYGTGFNLWGPGTLVTVSS
VL: QVLTQTASPVSAAVGGTVTINCQASQNIYSNLAWYQQKPGQRPKLLIYGASNLESGVPSRFRGSGSGTDYTLTISDLECDDAATYYCQSAYYSTSADNPFGGGTEVVVK
- binding [2]: binds

B10: c14D8 (antibody, V domains shown)
VH: QEQLEESGGGLVKPEGSLTLTCKASGFDLSSAYYMCWVRQAPGKGLEWIGCIATGSGSTYYASWAKGRFTISKTSSTTVTLQATSLTAADTATLFCARAPYYSYDGYDYALNLWGPGTLVTVSS
VL: IKMTQTPSSVSAVVGGTVTINCQASEDIVTYLAWYQQKPGHSPNLLIYAASTLASGVPSRFKGSGSGTQFTLTISDVQCDDAATYYCQQTYNYADTDNAFGGGTEVVVK
- binding (VISTA-his protein [3]): binds

B11: humanized anti-VISTA antibody 3A5-HZD (antibody, human IgG1, kappa, V domains shown)
VH: EVQLVESGGGLVQPGGSLRLSCAASGFSLSSENWICWVRQAPGKGLEWVGCICGANGGSAYHANWVNGRFTISRDNSKNTLYLQMNSLRAEDTAVYYCARAAGVSNAYYFDLWGQGTLVTVSS
VL: DIQMTQSPSSVSASVGDRVTITCQASQYIYINLAWYQQKPGKAPKLLIYDASDLASGVPSRFSGSGSGTDFTLTISSLQPEDFATYYCQCTYGGSTYGNAFGGGTKVEIKR
notes: kappa light chain
- binding (soluble VISTA [5]): binds
- binding (soluble VISTA [6]): binds

B13: humanized anti-VISTA antibody 29G7-HZD4 (antibody, human IgG1, kappa, V domains shown)
VH: B12 VH
VL: EIVMTQSPATLSLSPGERATLSCQASQSVYSRYLAWYQQKPGQAPRLLIYSASTLASGIPARFSGSGSGTDFTLTISSLQPEDFAVYYCQGTFYIPDYIDGFGGGTKVEIKR
notes: kappa light chain
- binding [4]: binds
- binding (soluble VISTA [5]): binds
- binding (soluble VISTA [6]): binds

B14: humanized anti-VISTA antibody 2D12-HZD3 (antibody, human IgG1, kappa, V domains shown)
VH: EVQLVESGGGLVQPGGSLRLSCAASGIDLSSYAMGWVRQAPGKGLEWVGIISSSGSAFYASWAKGRFTISRDNSKNTLYLQMNSLRAEDTAVYYCARHYAGYTTPYYFNFWGQGTLVTVSS
VL: AIQMTQSPSSLSASVGDRVTITCQASENIYSNLAWYQQKPGKAPKVLIYAASDLASGVPSRFSGSGSGTDFTLTISSLQPEDFATYYCQQGFSSSNVDNAFGGGTKVEIKR
notes: kappa light chain
- binding (soluble VISTA [5]): binds
- binding (soluble VISTA [6]): binds

B15: c3A5 (antibody, V domains shown)
VH: LEQSGGGAEGGLVKPGGSLDLCCKASGFSLSSENWICWVRQAPGKGLEWIGCICGANGGSAYHANWVNGRFTLSRDIDQSTDCLHLNSLTASDTAMYYCARAAGVSNAYYFDLWGPGTLVTVSS
VL: DVVMTQTPSSVSAAVGGTVTIKCQASQYIYINLAWYQQKPGQRPKLLIYDASDLASGVPSRFKGSRSGTEFTLTISDLECADAATYYCQCTYGGSTYGNAFGGGTEVVVK
- binding (VISTA-his protein [3]): binds

B16: humanized anti-VISTA antibody 14D8-HZD2 (antibody, human IgG1, kappa, V domains shown)
VH: EVQLVESGGGLVQPGGSLRLSCAASGFDLSSAYYMCWVRQAPGKGLEWVGCIATGSGSTYYASWAKGRFTISRDNSKNTLYLQMNSLRAEDTAVYYCARAPYYSYDGYDYALNLWGQGTLVTVSS
VL: DIQMTQSPSSVSASVGDRVTITCQASEDIVTYLAWYQQKPGKAPKLLIYAASTLASGVPSRFSGSGSGTDFTLTISSLQPEDFATYYCQQTYNYADTDNAFGGGTKVEIKR
notes: kappa light chain
- binding (soluble VISTA [5]): binds
- binding (soluble VISTA [6]): binds
